The list shows a part of the results.
Experiments:
Experiment in all cases: log2 fold change, soluble protein after heating vs DMSO (PISA); higher = thermal stabilisation; K562 lysate, 10 uM; active = over 0.2 and 3.5 SD of the protein, either way, in both replicates (recomputed)
erlotinib = compound: C#Cc1cccc(Nc2ncnc3cc(OCCOC)c(OCCOC)cc23)c1 [erlotinib]
Summary of the method: (§1)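 To prepare the extract, K562 pellets were dounce-homogenised in PBS pH 7.4 with 1 mM MgCl2, giving crude material at 1 mg/mL protein. This was treated with 10 μM compound for 30 min, then heated in aliquots for 3 min over 48°C-58°C before pooling and addition of NP-40 to 0.5% at 4°C. Centrifugation at 21,000xg for 90 min left soluble protein in the supernatant, which TMTpro 16plex LC-MS/MS quantified with equalised channel sums. Results are log-two fold changes in thermal stability compared with solvent controls, from duplicates.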

The chains behind the UniProt entries cited, without tags or fusion partners. Where a name states a change or a piece, a line headed by the entry shows the natural chain unless it says otherwise.
UniProt Q8NC56: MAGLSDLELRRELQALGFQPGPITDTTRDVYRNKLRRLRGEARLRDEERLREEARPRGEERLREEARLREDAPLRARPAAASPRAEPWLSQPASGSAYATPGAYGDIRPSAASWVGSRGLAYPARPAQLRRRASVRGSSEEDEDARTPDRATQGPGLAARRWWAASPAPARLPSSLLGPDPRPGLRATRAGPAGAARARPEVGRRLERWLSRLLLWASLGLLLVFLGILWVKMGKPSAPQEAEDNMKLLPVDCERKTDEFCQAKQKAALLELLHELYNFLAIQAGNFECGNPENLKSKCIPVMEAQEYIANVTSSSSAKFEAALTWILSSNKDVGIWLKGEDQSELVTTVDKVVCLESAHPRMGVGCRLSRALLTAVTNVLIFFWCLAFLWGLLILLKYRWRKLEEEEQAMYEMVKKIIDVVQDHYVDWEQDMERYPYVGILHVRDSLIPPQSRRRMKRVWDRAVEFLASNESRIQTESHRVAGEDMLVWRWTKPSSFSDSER
UniProt Q6ZUX7: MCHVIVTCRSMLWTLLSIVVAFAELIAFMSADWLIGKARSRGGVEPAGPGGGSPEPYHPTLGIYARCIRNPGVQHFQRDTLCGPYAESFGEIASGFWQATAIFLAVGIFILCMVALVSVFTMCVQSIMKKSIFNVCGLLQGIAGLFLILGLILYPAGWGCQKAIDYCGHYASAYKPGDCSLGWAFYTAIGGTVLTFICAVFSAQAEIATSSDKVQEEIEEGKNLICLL
UniProt Q6ZRR7: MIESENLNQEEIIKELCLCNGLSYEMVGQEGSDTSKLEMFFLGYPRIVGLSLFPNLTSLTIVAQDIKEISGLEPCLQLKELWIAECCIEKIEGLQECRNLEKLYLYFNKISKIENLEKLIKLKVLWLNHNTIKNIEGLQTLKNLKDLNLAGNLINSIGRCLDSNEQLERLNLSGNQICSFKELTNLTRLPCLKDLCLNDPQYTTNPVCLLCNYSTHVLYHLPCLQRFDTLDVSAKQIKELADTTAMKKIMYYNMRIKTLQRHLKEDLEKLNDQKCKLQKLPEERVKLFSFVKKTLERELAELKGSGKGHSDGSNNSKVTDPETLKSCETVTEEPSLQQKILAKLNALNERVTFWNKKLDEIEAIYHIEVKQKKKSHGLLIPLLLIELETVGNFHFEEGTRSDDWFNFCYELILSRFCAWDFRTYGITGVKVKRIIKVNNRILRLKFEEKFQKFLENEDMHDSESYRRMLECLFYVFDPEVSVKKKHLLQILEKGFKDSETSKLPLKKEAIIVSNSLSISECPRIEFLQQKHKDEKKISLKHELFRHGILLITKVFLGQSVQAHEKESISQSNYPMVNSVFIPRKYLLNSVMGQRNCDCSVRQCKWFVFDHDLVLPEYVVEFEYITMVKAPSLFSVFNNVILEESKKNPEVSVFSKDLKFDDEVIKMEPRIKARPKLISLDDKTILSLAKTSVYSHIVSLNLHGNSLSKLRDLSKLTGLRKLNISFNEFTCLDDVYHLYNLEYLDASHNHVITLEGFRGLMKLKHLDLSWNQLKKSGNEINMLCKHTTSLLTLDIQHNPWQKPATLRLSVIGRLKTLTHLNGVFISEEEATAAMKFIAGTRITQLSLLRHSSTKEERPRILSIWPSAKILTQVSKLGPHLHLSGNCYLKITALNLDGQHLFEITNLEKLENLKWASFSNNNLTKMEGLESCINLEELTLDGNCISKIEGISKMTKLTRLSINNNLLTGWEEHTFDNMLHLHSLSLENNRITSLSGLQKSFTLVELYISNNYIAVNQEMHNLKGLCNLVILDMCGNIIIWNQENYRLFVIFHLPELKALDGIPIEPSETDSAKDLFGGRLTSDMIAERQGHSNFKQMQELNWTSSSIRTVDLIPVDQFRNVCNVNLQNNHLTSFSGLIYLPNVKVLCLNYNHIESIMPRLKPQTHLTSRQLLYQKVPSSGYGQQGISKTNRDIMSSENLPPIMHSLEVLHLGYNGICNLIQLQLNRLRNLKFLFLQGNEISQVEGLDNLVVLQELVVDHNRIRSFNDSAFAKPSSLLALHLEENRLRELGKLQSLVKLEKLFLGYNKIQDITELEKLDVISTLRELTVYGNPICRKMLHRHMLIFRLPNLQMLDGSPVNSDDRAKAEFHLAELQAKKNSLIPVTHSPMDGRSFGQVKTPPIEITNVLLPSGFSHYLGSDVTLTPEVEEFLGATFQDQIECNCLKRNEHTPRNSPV
UniProt Q7Z4F1: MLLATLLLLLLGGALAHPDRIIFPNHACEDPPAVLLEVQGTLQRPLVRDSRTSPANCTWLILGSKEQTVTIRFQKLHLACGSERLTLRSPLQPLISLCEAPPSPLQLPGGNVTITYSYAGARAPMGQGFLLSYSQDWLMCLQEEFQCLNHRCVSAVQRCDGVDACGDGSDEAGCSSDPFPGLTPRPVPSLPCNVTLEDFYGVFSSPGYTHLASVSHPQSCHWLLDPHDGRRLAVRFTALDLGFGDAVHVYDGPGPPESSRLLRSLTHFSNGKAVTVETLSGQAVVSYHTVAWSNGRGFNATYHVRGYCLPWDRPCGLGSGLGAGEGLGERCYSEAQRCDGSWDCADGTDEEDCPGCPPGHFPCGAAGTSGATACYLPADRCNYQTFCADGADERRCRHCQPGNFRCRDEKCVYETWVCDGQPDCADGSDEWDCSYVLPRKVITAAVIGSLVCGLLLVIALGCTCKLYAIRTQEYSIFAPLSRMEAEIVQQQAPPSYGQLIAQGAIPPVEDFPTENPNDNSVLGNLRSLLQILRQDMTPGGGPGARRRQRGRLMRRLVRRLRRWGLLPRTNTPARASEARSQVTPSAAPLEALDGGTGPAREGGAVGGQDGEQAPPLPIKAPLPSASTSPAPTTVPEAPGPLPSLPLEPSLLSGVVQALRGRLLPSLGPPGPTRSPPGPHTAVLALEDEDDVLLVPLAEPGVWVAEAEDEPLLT
UniProt A6NK58: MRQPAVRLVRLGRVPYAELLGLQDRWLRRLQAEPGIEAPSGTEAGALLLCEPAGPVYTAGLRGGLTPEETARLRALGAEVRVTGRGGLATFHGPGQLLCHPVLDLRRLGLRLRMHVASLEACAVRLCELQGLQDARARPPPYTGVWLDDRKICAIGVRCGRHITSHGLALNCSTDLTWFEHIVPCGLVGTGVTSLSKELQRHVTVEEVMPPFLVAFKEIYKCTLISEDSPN
UniProt O95835: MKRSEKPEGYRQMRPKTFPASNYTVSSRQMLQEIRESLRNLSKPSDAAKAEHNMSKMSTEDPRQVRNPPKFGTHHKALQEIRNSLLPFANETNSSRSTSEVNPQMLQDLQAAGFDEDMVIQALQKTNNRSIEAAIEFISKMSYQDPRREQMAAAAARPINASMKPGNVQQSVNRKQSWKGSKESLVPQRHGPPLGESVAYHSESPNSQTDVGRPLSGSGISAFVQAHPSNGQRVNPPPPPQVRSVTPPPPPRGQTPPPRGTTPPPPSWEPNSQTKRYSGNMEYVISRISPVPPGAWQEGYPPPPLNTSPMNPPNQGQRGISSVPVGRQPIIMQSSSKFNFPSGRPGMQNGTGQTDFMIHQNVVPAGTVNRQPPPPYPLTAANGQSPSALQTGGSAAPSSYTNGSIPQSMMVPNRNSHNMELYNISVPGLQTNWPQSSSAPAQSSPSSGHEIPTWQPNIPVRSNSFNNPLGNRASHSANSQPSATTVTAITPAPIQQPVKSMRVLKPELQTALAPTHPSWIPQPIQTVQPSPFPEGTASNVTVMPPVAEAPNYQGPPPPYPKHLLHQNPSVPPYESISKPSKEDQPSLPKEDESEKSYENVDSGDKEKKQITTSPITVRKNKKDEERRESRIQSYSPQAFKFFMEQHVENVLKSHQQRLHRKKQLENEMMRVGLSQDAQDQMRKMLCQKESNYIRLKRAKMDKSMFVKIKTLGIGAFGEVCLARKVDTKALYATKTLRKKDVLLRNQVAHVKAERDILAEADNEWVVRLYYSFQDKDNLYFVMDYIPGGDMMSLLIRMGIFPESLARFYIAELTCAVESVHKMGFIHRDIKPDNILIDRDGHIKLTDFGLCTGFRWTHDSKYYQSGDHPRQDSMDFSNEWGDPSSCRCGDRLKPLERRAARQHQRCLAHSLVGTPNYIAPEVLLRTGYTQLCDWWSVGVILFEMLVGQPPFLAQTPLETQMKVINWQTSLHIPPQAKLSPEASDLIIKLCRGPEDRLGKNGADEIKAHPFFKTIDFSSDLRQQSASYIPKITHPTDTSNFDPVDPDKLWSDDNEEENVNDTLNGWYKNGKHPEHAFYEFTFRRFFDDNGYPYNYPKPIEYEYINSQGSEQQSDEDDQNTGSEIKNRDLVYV
UniProt Q86VQ0: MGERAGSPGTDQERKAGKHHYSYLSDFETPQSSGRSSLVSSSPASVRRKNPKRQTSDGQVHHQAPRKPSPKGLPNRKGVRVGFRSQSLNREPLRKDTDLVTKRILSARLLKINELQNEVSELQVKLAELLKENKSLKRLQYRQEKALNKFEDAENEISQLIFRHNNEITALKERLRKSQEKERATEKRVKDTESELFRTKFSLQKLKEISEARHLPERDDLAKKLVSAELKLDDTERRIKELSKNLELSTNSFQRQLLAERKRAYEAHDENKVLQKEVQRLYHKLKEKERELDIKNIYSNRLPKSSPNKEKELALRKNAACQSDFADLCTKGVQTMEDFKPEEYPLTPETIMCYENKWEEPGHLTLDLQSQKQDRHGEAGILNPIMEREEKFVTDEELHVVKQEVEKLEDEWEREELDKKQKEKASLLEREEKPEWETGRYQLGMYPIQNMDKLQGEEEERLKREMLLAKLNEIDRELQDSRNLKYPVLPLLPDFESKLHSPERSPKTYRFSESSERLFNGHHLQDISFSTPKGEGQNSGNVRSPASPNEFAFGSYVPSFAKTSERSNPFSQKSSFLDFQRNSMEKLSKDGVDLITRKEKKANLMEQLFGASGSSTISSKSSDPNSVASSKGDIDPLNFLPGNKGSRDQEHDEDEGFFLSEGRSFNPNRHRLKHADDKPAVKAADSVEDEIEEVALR
UniProt Q53QV2: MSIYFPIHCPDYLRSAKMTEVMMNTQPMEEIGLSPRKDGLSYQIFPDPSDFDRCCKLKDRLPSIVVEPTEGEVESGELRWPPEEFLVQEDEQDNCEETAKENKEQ
UniProt O15243: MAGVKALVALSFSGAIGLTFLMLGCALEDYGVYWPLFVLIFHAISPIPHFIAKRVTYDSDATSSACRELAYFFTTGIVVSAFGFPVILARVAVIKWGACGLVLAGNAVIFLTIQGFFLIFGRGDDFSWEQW
UniProt Q9UJU2, whole entry, looked up: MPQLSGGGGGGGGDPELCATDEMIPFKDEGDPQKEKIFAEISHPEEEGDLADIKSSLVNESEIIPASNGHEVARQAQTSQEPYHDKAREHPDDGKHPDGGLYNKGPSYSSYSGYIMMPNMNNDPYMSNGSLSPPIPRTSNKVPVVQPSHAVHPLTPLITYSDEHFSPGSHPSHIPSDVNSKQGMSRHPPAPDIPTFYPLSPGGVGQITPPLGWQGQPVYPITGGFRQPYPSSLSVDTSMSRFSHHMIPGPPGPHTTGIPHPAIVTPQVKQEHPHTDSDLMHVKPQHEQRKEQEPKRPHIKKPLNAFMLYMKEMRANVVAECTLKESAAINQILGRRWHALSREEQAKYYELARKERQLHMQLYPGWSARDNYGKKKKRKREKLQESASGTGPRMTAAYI
UniProt P53667: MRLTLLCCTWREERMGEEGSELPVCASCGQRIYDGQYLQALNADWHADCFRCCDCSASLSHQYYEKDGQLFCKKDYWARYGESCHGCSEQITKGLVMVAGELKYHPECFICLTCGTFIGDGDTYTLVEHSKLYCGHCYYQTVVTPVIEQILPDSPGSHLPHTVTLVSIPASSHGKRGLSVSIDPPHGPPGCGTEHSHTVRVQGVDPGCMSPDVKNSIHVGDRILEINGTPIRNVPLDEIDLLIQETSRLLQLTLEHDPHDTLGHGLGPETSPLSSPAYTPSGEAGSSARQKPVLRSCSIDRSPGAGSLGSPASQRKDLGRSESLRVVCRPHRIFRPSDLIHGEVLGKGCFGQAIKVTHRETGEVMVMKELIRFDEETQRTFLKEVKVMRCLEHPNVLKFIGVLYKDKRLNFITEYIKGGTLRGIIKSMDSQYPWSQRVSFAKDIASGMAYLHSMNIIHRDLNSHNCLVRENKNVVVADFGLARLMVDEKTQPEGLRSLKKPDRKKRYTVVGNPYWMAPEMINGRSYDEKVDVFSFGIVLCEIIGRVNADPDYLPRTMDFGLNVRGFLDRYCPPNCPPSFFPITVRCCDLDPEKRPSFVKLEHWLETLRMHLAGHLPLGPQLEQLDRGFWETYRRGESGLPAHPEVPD

[1] = compound: C1=CC(=CC=C1C2=NC3=C(N2)C=C(C=C3)C(=O)N)OC4=CC=C(C=C4)Cl
Summary of the method: as §1

[2] = compound: C1=CC=C(C=C1)C2=NC(=C(N2)C3=CC=NC=C3)C4=CC(=C(C=C4)Cl)O
Summary of the method: as §1

[3] = compound: C1CCN(C1)C(=O)NC2=CC=CC(=C2)NC3=NC=C(C(=N3)NCCC4=CN=CN4)Br
Summary of the method: as §1

[4] = compound: C1CN(CCC1(CC2=CC=C(C=C2)Cl)N)C3=NC=NC4=C3C=CN4
Summary of the method: as §1

IRAK-1-4 Inhibitor I = compound: C1COCCN1CCN2C3=CC=CC=C3N=C2NC(=O)C4=CC(=CC=C4)[N+](=O)[O-] [IRAK-1-4 Inhibitor I]
Summary of the method: as §1

[5] = compound: C/C(=N\NC(=O)C1=CC(=CC=C1)S(=O)(=O)N2CCOCC2)/C3=C(C=CC(=C3)Cl)O
Summary of the method: as §1

[6] = compound: C1=CC2=C(C=CC(=C2)/C=C\3/C(=O)NC(=NCC4=CC=CS4)S3)N=C1
Summary of the method: as §1

[7] = compound: C1=CC=C2C(=C1)C3=NNC4=CC=CC(=C43)C2=O
Summary of the method: as §1

[8] = compound: C1=CC2=NC=CN=C2C=C1/C=C/3\C(=O)NC(=O)S3
Summary of the method: as §1

Measured: log2 fold change

LEMD2 (UniProt Q8NC56)
inactive: erlotinib 0.034 | [1] -0.083 | [2] -0.031 | [3] -0.118 | [4] -0.042 | IRAK-1-4 Inhibitor I -0.018

LRPPRC (UniProt H7C3W8)
inactive: [5] -0.13 | [6] -0.053 | [7] -0.3

LHFPL2 (UniProt Q6ZUX7)
inactive: [8] -0.103

LRRC9 (UniProt Q6ZRR7)
inactive: [5] -0.037 | [6] 0.02 | [7] -0.01 | [3] -0.044 | [4] -0.07

LRP10 (UniProt Q7Z4F1)
inactive: erlotinib -0.028 | [1] -0.109 | [8] -0.097 | [2] 0.234 | [3] -0.061 | [4] -0.057 | IRAK-1-4 Inhibitor I -0.103

LIPT2 (UniProt A6NK58)
inactive: [8] 0.137 | [3] 0.035 | [4] 0.097

LATS1 (UniProt O95835)
inactive: erlotinib -0.035 | [1] -0.127

LCA5 (UniProt Q86VQ0)
inactive: [5] 0.068 | [6] 0.059 | [7] -0.216 | [3] -0.032 | [4] 0.031

LBH (UniProt Q53QV2)
inactive: erlotinib 0.066 | [1] -0.074 | [2] -0.129 | [3] 0.058 | [4] 0.221 | IRAK-1-4 Inhibitor I -0.039

LEPROT (UniProt O15243)
inactive: erlotinib 0.176 | [1] -0.116 | [8] -0.02 | [2] -0.064 | [3] 0.122 | [4] 0.045 | IRAK-1-4 Inhibitor I -0.036

LEF1 (UniProt Q9UJU2)
inactive: [5] -0.173 | [6] -0.07 | [2] -0.05 | [7] -0.041 | IRAK-1-4 Inhibitor I 0.056

LIMK1 (UniProt P53667)
inactive: [5] 0.114 | [6] -0.088 | [8] 0.133 | [2] -0.002 | [7] 0.029 | [3] 0.068 | [4] -0.05 | IRAK-1-4 Inhibitor I 0.06

Source: the supplement of paper PMC10849652
